{"source": "PubChem BioAssay AID540276", "about": "(National Center for Advancing Translational Sciences (NCATS), 2011)", "note": "Where “and” joins values, the source holds several entries; their conditions need not be identical. Identical values can stand only once. Screen size: about 300,000 compounds; about 5,400 (1.8%) were called active. Inconclusive means that the source gave no clear call. Such entries were picked first, then a sample of the others. Calls follow the shape of the full dose curve; tested in HEK293 cells. Potencies of inconclusive entries are doubtful fits and often do not repeat. % is scaled to controls: 0 for no effect and ±100 for the full control effect; potency is read from the fitted curve at half-maximal effect.", "data": [{"experiment": "qHTS for inhibitors of binding or entry into cells for Marburg Virus", "details": "Marburg virus pseudotyped entry inhibition, cell reporter; activity change, negative = inhibition: at 37.8 µM (top of the series) unless noted", "values": [{"smiles": "Cc1cccc2c1N(C)C(=O)C2=O", "activity change, negative = inhibition": "inactive: 8.96% [at 46.1 µM]"}, {"smiles": "CCC1Sc2ccc(S(=O)(=O)CCC(=O)NC3CCCCCC3)cc2NC1=O", "note": "(configuration not stated)", "Potency": "inconclusive: 11.2 µM [inhibitor, partial curve, poor fit]"}, {"smiles": "O=c1n(-c2ccccc2)c(=O)n2n1CC(O)C2", "Potency": "inconclusive: 12.6 µM [activator, single point]"}, {"smiles": "Cc1ccccc1C(=O)NCC(=O)N1CCN(c2ccccn2)CC1", "Potency": "inconclusive: 0.794 µM [activator, single point]"}, {"smiles": "O=C(OCC(=O)N1CCCCCC1)c1n[nH]c(=O)c2ccccc12", "activity change, negative = inhibition": "inactive: 22.1%"}, {"smiles": "COc1cc(NC(=S)NC(=O)c2ccc(C(C)(C)C)cc2)ccc1NC(=O)c1cccs1", "Potency": "inconclusive: 0.0184 µM [inhibitor, full curve, poor fit]"}, {"smiles": "O=C(NCCCn1ccnc1)/C(=C\\c1cccs1)NC(=O)c1cccs1", "Potency": "inconclusive: 6.31 µM [activator, single point]"}, {"smiles": "Cc1ccc(NC(=O)C(C)c2ccc([N+](=O)[O-])cc2)cc1Cl", "note": "(configuration not stated)", "Potency": "inconclusive: 11.2 µM [inhibitor, partial curve, poor fit]"}, {"smiles": "NC(=O)C1CCCc2c1n(Cc1ccccc1)c1ccccc21", "note": "(configuration not stated)", "Potency": "inconclusive: 6.31 µM [inhibitor, partial curve, poor fit]"}, {"smiles": "COc1ccc(C2Nc3ccccc3C(=O)N2c2ccc(C)cc2)cc1Cn1nnc2ccccc21", "note": "(configuration not stated)", "Potency": "inconclusive: 18.3 µM [inhibitor, single point]"}, {"smiles": "N#Cc1ccc(/C=C/C(=O)c2ccco2)cc1", "Potency": "inconclusive: 35.5 µM [inhibitor, single point]"}, {"smiles": "COc1ccc(OC)c(N(CC(=O)NCc2ccccc2)S(=O)(=O)c2ccccc2)c1", "Potency": "inconclusive: 2.82 µM [inhibitor, single point]"}, {"smiles": "COc1ccccc1-c1cc(C(F)(F)F)nc(S(=O)(=O)CCCC(=O)N2CCCCC2C)n1", "note": "(configuration not stated)", "Potency": "inconclusive: 35.5 µM [inhibitor, partial curve, poor fit]"}, {"smiles": "O=C(CSc1nnc(Cc2ccccc2)n1-c1cccc(Cl)c1)N1CCOCC1", "Potency": "inconclusive: 0.73 µM [inhibitor, partial curve, poor fit]"}, {"smiles": "C[N+]1(CC(=O)OCCCc2ccccc2)CCOCC1", "Potency": "inconclusive: 0.251 µM [inhibitor, full curve, poor fit]"}, {"smiles": "O=[N+]([O-])c1ccc(Oc2cccc3cccnc23)c([N+](=O)[O-])c1", "Potency": "inconclusive: 7.94 µM [inhibitor, partial curve, poor fit]"}, {"smiles": "Cc1ccccc1NC(=S)NCc1ccc2[nH]c3c(c2c1)CCCC3", "Potency": "inconclusive: 16.4 µM [inhibitor, single point]"}, {"smiles": "COc1c(C(=O)Nc2ccc3[nH]c(=O)[nH]c3c2)cc2ccccc2c1Br", "Potency": "inconclusive: 11.2 µM [inhibitor, partial curve, poor fit]"}, {"smiles": "Cc1csc2nc(O)c(C(=O)NCc3ccc4c(c3)OCO4)c(=O)n12", "activity change, negative = inhibition": "inactive: 2.01% [at 46.1 µM]"}, {"smiles": "CCOCCc1nnc(NC(=O)CCS(=O)(=O)c2ccccc2)s1", "Potency": "inconclusive: 22.4 µM [inhibitor, single point]"}, {"smiles": "C[C@H](NC(=O)c1ccccc1Cl)C(=O)OCc1cn2cc(Cl)ccc2n1", "activity change, negative = inhibition": "inactive: -8.64%"}, {"smiles": "Cc1ccc(S(=O)(=O)N2CCOCC2)cc1NC(=O)CSc1nc2ccccc2c(=O)n1Cc1ccccc1", "activity change, negative = inhibition": "inactive: 17.5%"}, {"smiles": "O=C(Nc1ccc2c(c1)CCC2)c1cccc(S(=O)(=O)N2CCN(c3ccc(F)cc3)CC2)c1", "Potency": "inconclusive: 11.2 µM [inhibitor, partial curve, poor fit]"}, {"smiles": "CCOC(=O)c1c(C)n2c3c(cc(C)cc13)CCC2", "Potency": "inconclusive: 35.5 µM [inhibitor, single point]"}, {"smiles": "CC1CCc2c(sc3nnn(Cc4ccc(F)cc4)c(=O)c23)C1", "note": "(configuration not stated)", "activity change, negative = inhibition": "inactive: -0.842% [at 46.1 µM]"}, {"smiles": "O=C(NCc1ccccc1)c1cc(-c2cccc(Cl)c2)on1", "Potency": "inconclusive: 35.5 µM [activator, single point]"}, {"smiles": "COc1ccc(S(=O)(=O)N(CC(=O)NCC2CCCO2)Cc2ccccc2)cc1C", "note": "(configuration not stated)", "activity change, negative = inhibition": "inactive: 20% [at 46.1 µM]"}, {"smiles": "COc1ccccc1-c1nc(-c2ccc(Br)cc2)no1", "activity change, negative = inhibition": "inactive: 2.38%"}, {"smiles": "Cc1cc(C)cc(OCC(=O)NCC(c2ccc(Cl)cc2)N2CCCCC2)c1", "note": "(configuration not stated)", "Potency": "inconclusive: 35.5 µM [inhibitor, single point]"}, {"smiles": "O=C(C=Cc1ccccc1Cl)c1ccccc1", "Potency": "inconclusive: 15.8 µM [inhibitor, partial curve, poor fit]"}, {"smiles": "Cc1cccc(NC(=O)CSc2ccc(-c3cccs3)nn2)c1C", "Potency": "inconclusive: 1.26 µM [activator, single point]"}, {"smiles": "CC(C)(C)NC(=O)c1cccc(NC(=O)c2ccc3c(c2)C(=O)N(C(C)(C)C)C3=O)c1", "Potency": "inconclusive: 35.5 µM [inhibitor, single point]"}, {"smiles": "O=C1/C(=C/c2ccccc2)NC(=S)N1C(c1ccccc1)c1ccccc1", "Potency": "inconclusive: 6.31 µM [inhibitor, full curve, poor fit]"}, {"smiles": "CCOC(=O)C1(Cc2ccccc2)CCCN(C(=O)C=C(C)C)C1", "note": "(configuration not stated)", "Potency": "inconclusive: 3.55 µM [activator, single point]"}, {"smiles": "C=CCCCN1C=C(C(C)=O)C(c2ccccc2)NC1=O", "note": "(configuration not stated)", "activity change, negative = inhibition": "inactive: 18.2% [at 14.2 µM]"}, {"smiles": "CCOc1ccc(/C=C/C(=O)Nc2ccc3[nH]c(=O)[nH]c3c2)cc1", "Potency": "inconclusive: 1.26 µM [activator, partial curve, poor fit]"}, {"smiles": "Cc1ccc(Cn2c(=O)n(CCCCC(=O)NCCc3ccc(Cl)cc3)c(=O)c3ccccc32)cc1", "Potency": "inconclusive: 3.55 µM [inhibitor, single point]"}, {"smiles": "COc1ccc(NC(=O)Cc2c(C(=O)O)n(C)c3ccccc23)cc1OC", "Potency": "inconclusive: 35.5 µM [activator, single point]"}, {"smiles": "O=C(CSc1ccc2ccccc2n1)c1ccc2c(c1)OCO2", "activity change, negative = inhibition": "inactive: 56.3%"}, {"smiles": "O=C(O)CSc1nnnn1-c1ccc2c(c1)OCCO2", "activity change, negative = inhibition": "inactive: -13.5%"}, {"smiles": "CCOC(=O)Nc1ccc(Oc2ccccc2)cc1", "activity change, negative = inhibition": "inactive: 26%"}, {"smiles": "COc1cc(NC(=O)c2cc3ccccc3o2)ccc1NC(=O)c1ccco1", "activity change, negative = inhibition": "inactive: 7.86% [at 46.1 µM]"}, {"smiles": "O=C(CSCC(=O)Nc1ccccc1)N/N=C/c1c(O)ccc2ccccc12", "Potency": "inconclusive: 25.9 µM [inhibitor, single point]"}, {"smiles": "C=CCn1c(=O)c(C(=O)Nc2ccccc2S(N)(=O)=O)c(O)c2ccccc21", "activity change, negative = inhibition": "inactive: 8.35%"}, {"smiles": "CC(C)c1ccc(/C=N/NC(=O)c2cccc(Cl)c2)cc1", "Potency": "inconclusive: 2.91 µM [activator, partial curve, poor fit]"}, {"smiles": "c1ccc(C2(c3ccccc3)CC2C2=NCCN2)cc1", "note": "(configuration not stated)", "Potency": "inconclusive: 13 µM [inhibitor, partial curve, poor fit]"}, {"smiles": "CC1CC(Nc2ccccc2)c2ccccc2N1C(=O)c1ccco1", "note": "(configuration not stated)", "Potency": "inconclusive: 35.5 µM [inhibitor, single point]"}, {"smiles": "C[C@H]1[C@H](c2ccccc2)Oc2ccc(Cl)cc2S(=O)(=O)N1C[C@@H]1CCCN1C(=O)OC(C)(C)C", "Potency": "inconclusive: 2.5 µM [inhibitor, full curve, poor fit]"}, {"smiles": "CCCN(CCC)C1CCc2ccc(O)cc2C1", "note": "(configuration not stated)", "Potency": "inconclusive: 0.0562 µM [inhibitor, full curve]"}, {"smiles": "CC(=O)N1CCN(C(=O)c2ccc(Cl)c(S(=O)(=O)N3CCCC3)c2)CC1", "Potency": "inconclusive: 0.794 µM [activator, full curve, poor fit]"}, {"smiles": "O=C(CSC1=NCCS1)N1CCN(c2ccc(Cl)cc2)CC1", "activity change, negative = inhibition": "inactive: -23.7% [at 46.1 µM]"}, {"smiles": "Cc1ccc(C)c(/C(O)=C2\\C(=O)C(=O)N(CCCN3CCOCC3)C2c2cccnc2)c1", "note": "(configuration not stated)", "Potency": "inconclusive: 6.31 µM [inhibitor, single point]"}, {"smiles": "Cc1cc(SCC(=O)N/N=C/c2ccccc2C(=O)O)c(C)cc1Br", "activity change, negative = inhibition": "inactive: 1.4% [at 46.1 µM]"}, {"smiles": "C=CCn1c(SCC(=O)NC2CCCCC2)nc2ccccc2c1=O", "Potency": "inconclusive: 5.62 µM [inhibitor, single point]"}, {"smiles": "Cc1ccc(-n2ncc(-c3nnc(SCC(=O)NC4CCCC4)o3)c2N)cc1C", "Potency": "inconclusive: 35.5 µM [inhibitor, partial curve, poor fit]"}, {"smiles": "COc1ccc(NC(=O)CCN2CCN(c3cccc(Cl)c3)CC2)cc1", "Potency": "inconclusive: 6.31 µM [activator, partial curve, poor fit]"}, {"smiles": "Cc1cc(NC(=O)CCC(=O)N(CC(=O)NCC2CCCO2)Cc2ccc(F)cc2)no1", "note": "(configuration not stated)", "Potency": "inconclusive: 12.6 µM [activator, single point]"}, {"smiles": "Cc1cccc(N2CCN(S(=O)(=O)c3ccc4c(c3)NC(=O)CO4)CC2)c1C", "Potency": "inconclusive: 8.91 µM [inhibitor, partial curve, poor fit]"}, {"smiles": "O=C(NC(=S)Nc1ccccc1)c1cccs1", "activity change, negative = inhibition": "inactive: 0.48% [at 46.1 µM]"}, {"smiles": "COc1ccc(OCC(=O)Nc2nccs2)cc1", "Potency": "inconclusive: 35.5 µM [inhibitor, single point]"}, {"smiles": "COc1cc(/C=N\\NC(C)=O)ccc1OC/C=C/c1ccccc1", "activity change, negative = inhibition": "inactive: -26% [at 46.1 µM]"}, {"smiles": "CC(=O)OC1N=C(c2ccccc2)c2cc(Br)ccc2NC1=O", "note": "(configuration not stated)", "Potency": "inconclusive: 1.03 µM [inhibitor, full curve, poor fit]"}, {"smiles": "COc1cc(NC(=O)Cn2c(=O)n(Cc3ccccc3OC)c(=O)c3cccnc32)cc(OC)c1", "Potency": "inconclusive: 4.47 µM [inhibitor, full curve]"}, {"smiles": "Cn1nnnc1SCC(=O)Nc1sccc1C(N)=O", "activity change, negative = inhibition": "inactive: -3.85%"}, {"smiles": "CCc1ccc(CN(Cc2ccco2)C(=O)c2ccccc2Cl)cc1", "Potency": "inconclusive: 5.01 µM [inhibitor, partial curve, poor fit]"}, {"smiles": "COC(=O)CCC(=O)c1oc2ccc(Br)cc2c1N", "Potency": "inconclusive: 7.3 µM [activator, partial curve, poor fit]"}, {"smiles": "O=C(Nc1cccc(Cl)c1)c1ccc2c(=O)n3c(nc2c1)CCCCC3", "Potency": "inactive and inconclusive: 15.8 µM [inhibitor, partial curve, poor fit]"}]}]}
